The campaign covered roughly 330,000 compounds. About 7,700 (2.3%) were called active. The inconclusive results got no clear call from the source; some entries with a clear call stand among them for comparison. The call rests on the fitted dose curve; in most records, active means well fitted inhibition curve with a large enough effect; inconclusive means small, poorly fitted or top-dose-only effect, or effect the other way; inactive means flat fitted curve, though single readings scatter. A potency beside an inconclusive call is a rough fit, not a confirmed value.
Assay: qHTS screen for small molecules that inhibit ELG1-dependent DNA repair in human embryonic kidney (HEK293T) cells expressing luciferase-tagged ELG1; further: nearly all actives have a fitted effect of over 55% in size
Details: HEK293T ELG1-luciferase reporter, luminescence, 16 h, DNA damage induced by 5-fluorouridine; activity change, negative = inhibition: at 46.1 µM (top of the series)
In short: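 Reporter activity after DNA damage by 5-fluorouridine is monitored. Compound-treated cells incubate 16 hr at 37 °C, then ONE-Glo is added for 30 min before luminescence reading.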
With `O=C(CNc1cccc(S(=O)(=O)N2CCCC2)c1)Nc1cccc(C(F)(F)F)c1` the Potency was active: 9.2 µM.
In the case of `CCS(=O)(=O)N1CCC(C(=O)Oc2ccccc2Cl)CC1`, the “activity change, negative = inhibition” value is reported as inactive: -8.27%.
For `CCN1CCN(c2ccc(N3CCN(S(=O)(=O)c4cc([N+](=O)[O-])ccc4C)CC3)nn2)CC1`, the “activity change, negative = inhibition” value was inactive: 0.913%.
With `CS(=O)(=O)Nc1ccc(C2=NN(C(=O)c3cccc(F)c3)C(c3cccs3)C2)cc1` (stereo not given) the Potency was active: 16.4 µM.
For `N#CC(C#N)=CN=c1ccn(Cc2ccc(Cl)cc2Cl)cc1`, the Potency was inconclusive: 35.5 µM [inhibitor, single point].
For `COC(=O)CCSc1nc(N2CCOCC2)c2c(c1C#N)CC(C)(C)OC2`, the Potency was inconclusive: 9.2 µM [inhibitor, partial curve].
With `Cn1cc(C(=O)N/N=C/c2cccc(O)c2)ccc1=O` the “activity change, negative = inhibition” value was inactive: -1.99%.
With `Cc1cc2cc(CN(Cc3cccs3)C(=S)NCc3ccco3)c(=O)[nH]c2cc1C` the Potency was active: 20.6 µM.
With `O=C(Oc1oc(-c2ccco2)nc1C=Nc1ccc(Cl)cc1)c1ccco1` the Potency was inconclusive: 14.1 µM [activator, partial curve].
In the case of `Cc1c(OCC(=O)Nc2cccnc2)ccc2c3c(c(=O)oc12)CCC3`, the Potency is reported as inconclusive: 2.31 µM [activator, full curve].
In the case of `O=C(/C(=C/c1ccc(Cl)cc1)c1nc2ccccc2[nH]1)c1ccccc1`, the Potency is reported as inconclusive: 32.6 µM [inhibitor, single point].
For `O=c1ccc(-c2ccc(S(=O)(=O)Nc3ccccc3Cl)o2)n[nH]1`, the “activity change, negative = inhibition” value was inactive: 3.16%.
In the case of `CC1=C/C(=N\NC(=O)c2ccc(O)cc2)CC1`, the Potency is reported as inconclusive: 23.1 µM [activator, single point].
In the case of `Cn1c(=O)cc(SCC(=O)N2CCCC2)c2ccccc21`, the Potency is reported as inconclusive: 18.4 µM [activator, partial curve].
In the case of `CC(C)c1ccc(C(N)=S)cc1`, the Potency is reported as inconclusive: 20.6 µM [activator, single point].
For `C=CCn1c(C)cc(C(=O)Cn2ncc(Cl)c(Cl)c2=O)c1C`, the Potency was inconclusive: 29.1 µM [inhibitor, single point].
For `CCOC(=O)c1cnc2c(C(=O)OC)cccc2c1NCc1cccnc1`, the Potency was inconclusive: 16.4 µM [inhibitor, single point].
With `C=CCn1c(Oc2ccccc2F)nc2c1c(=O)n(C)c(=O)n2C` the Potency was active: 4.11 µM.
In the case of `c1ccc(CSc2nnc(Cc3ccccn3)o2)cc1`, the Potency is reported as inconclusive: 20.6 µM [activator, partial curve].
For `COc1ccc(NS(=O)(=O)c2ccc3oc(=S)[nH]c3c2)cc1`, the Potency was inconclusive: 1.83 µM [inhibitor, partial curve].
With `Cc1ccc(C)c(-n2c(-c3ccc(Br)cc3)csc2=NC(=O)c2ccccc2F)c1` the Potency was active: 11.6 µM.
With `CC(=O)N1CCCc2cc(S(=O)(=O)N(C)Cc3ccccc3)ccc21` the Potency was inconclusive: 28.2 µM [inhibitor, single point].
With `COc1ccc(-c2nc(C3CCCCC3)no2)cc1OC` the Potency was inconclusive: 16.4 µM [activator, partial curve, poor fit].
With `O=C(O)c1ccccc1C(=O)OCCc1cc2ccccc2c(=O)o1` the Potency was inconclusive: 20.6 µM [activator, partial curve].
With `COc1ccccc1/C=N/NC(=S)Nc1cccnc1` the “activity change, negative = inhibition” value was inactive: 15.1%.
In the case of `Cc1ccc(S(=O)(=O)N2CCC(C(=O)Nc3nnc(COc4ccccc4)s3)CC2)cc1`, the Potency is reported as inconclusive: 23.1 µM [inhibitor, single point].
With `COc1ccc2nc(NC(=O)c3ccccc3F)sc2c1` the Potency was inconclusive: 0.231 µM [activator, full curve].
With `CCOC(=O)C1=C(c2ccccc2)NC(=S)NC1c1ccc(C)c([N+](=O)[O-])c1` (stereo not given) the Potency was inconclusive: 29.1 µM [inhibitor, single point].
For `CCOC(=O)c1c(C(=O)OCC)c(C)n(CCc2ccccc2)c1C`, the Potency was inconclusive: 23.1 µM [inhibitor, single point].
For `CCC1CCCCN1C(=O)c1ccc(OC2CCN(C(=O)COC)CC2)cc1` (stereo not given), the “activity change, negative = inhibition” value was inactive: 2.69%.
With `CC[C@H]1c2[nH]c3ccccc3c2C[C@@H]2C(=O)N(c3ccc(F)cc3)C(=O)N21` the Potency was active: 8.2 µM.
In the case of `Cc1ccc(C(=O)COC(=O)c2nc(Cl)ccc2Cl)cc1`, the “activity change, negative = inhibition” value is reported as inactive: -3.52%.
With `O=C(Nc1ccc(Cl)cn1)C1CCN(c2ncnc3c2nc2n3CCCCC2)CC1` the Potency was active: 2.06 µM.
With `Cc1ccc(S(=O)(=O)N(C)C)cc1NC(=O)Cn1c(CN2CCOCC2)nc2ccccc2c1=O` the “activity change, negative = inhibition” value was inactive: -8.08%.
For `CCOc1ccc(C(=O)N2CCn3c2nc2ccccc23)cc1`, the Potency was inconclusive: 3.26 µM [inhibitor, full curve].
In the case of `CC(C)OC(=O)c1ccc(NC(=O)c2ccccc2)cc1`, the Potency is reported as inconclusive: 4.11 µM [activator, full curve].
For `O=C(NCc1cccnc1)c1noc2c1CCCCC2`, the Potency was inconclusive: 20.6 µM [activator, single point].
With `Cc1ccc(OCCC(=O)Nc2ccc3c(c2)OCO3)cc1` the Potency was inconclusive: 18.3 µM [activator, partial curve, poor fit].
With `Cc1nnc2n(C3CCCCC3)c(=O)c3c4c(sc3n12)CCC4` the Potency was inconclusive: 11.6 µM [activator, partial curve, poor fit].
In the case of `CS(=O)(=O)c1ccc(S(=O)CC(=O)OCc2ccccc2)c([N+](=O)[O-])c1` (stereo not given), the Potency is reported as inconclusive: 7.3 µM [activator, partial curve].
In the case of `COCCNC(=O)C1CC(c2cccc(OC)c2)=NO1` (stereo not given), the “activity change, negative = inhibition” value is reported as inactive: 9.28%.
With `S=C(Nc1ccc(Cl)c(Cl)c1)N1CCCC1` the “activity change, negative = inhibition” value was inactive: 2.45%.
In the case of `CN[C@H]1CCc2cc(OC)c(OC)c(OC)c2-c2ccc(N(C)CC(OC)OC)c(=O)cc21`, the Potency is reported as inconclusive: 0.82 µM [inhibitor, full curve].
In the case of `COCCN1C(=O)N(C)[C@@H](c2ccccc2)C(C(C)=O)=C1C`, the Potency is reported as inconclusive: 32.6 µM [activator, partial curve, poor fit].
For `COc1ccc(/C=N\NC(=O)c2ccccc2Br)cc1COc1c(F)c(F)cc(F)c1F`, the Potency was inconclusive: 14.6 µM [inhibitor, partial curve, poor fit].
On the % scale 0 is the no-effect control and ±100 the full control effect; potency means the concentration at half of the fitted maximal effect.
